No constants are given. Whether binding was seen depends on the method and setting. Binding seen in cells or lysates may run through a third protein. Some entries that bind do so weakly or less than the wild type. Where a sequence is shown, tags or fusion partners need not be part of it.
Biological target: T1, GST tagged DptE (Salmonella enterica serovar Cerro 87) (UniProt E2D679)
T1 sequence: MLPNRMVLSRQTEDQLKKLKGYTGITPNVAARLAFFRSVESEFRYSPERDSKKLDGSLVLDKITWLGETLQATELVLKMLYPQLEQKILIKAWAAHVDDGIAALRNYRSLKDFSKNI
Test: pull-down; Cell extracts of Strep-IscS and GST-DptC or GST-DptE mixed in equal volume, GST resin, Buffer S (25 mM Hepes pH7.6, 100 mM KCl, 10% glycerol), 1 hour, eluted with 20 mM glutathione; Western blot against StreptagII

The chains behind the UniProt entries cited, without tags or fusion partners.
UniProt P0A6B7: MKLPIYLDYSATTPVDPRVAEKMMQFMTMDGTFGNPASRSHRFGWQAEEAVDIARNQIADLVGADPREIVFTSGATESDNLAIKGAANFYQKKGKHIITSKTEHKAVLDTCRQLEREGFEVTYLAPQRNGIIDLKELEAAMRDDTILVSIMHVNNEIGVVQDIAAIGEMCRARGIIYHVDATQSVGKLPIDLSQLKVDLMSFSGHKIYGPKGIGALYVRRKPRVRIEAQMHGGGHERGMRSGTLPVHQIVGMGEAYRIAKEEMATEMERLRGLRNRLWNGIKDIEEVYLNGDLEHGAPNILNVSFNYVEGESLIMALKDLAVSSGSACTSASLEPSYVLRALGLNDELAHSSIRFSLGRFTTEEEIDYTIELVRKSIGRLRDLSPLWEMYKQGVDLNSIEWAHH

## Strep tagged IscS (from UniProt P0A6B7 1-404) (enzyme)
  binding: binds

Source: paper PMC3519819
